Assay results taken from paper PMC13649712.
Results are given in words; binding and its absence hold for the method and conditions named. Some results given as binding are weak or reduced against the parent protein; the word gives no strength.

Molecular target: T1, mouse CRY1 1-496 (PHR) (mouse) (UniProt P97784)
T1 sequence: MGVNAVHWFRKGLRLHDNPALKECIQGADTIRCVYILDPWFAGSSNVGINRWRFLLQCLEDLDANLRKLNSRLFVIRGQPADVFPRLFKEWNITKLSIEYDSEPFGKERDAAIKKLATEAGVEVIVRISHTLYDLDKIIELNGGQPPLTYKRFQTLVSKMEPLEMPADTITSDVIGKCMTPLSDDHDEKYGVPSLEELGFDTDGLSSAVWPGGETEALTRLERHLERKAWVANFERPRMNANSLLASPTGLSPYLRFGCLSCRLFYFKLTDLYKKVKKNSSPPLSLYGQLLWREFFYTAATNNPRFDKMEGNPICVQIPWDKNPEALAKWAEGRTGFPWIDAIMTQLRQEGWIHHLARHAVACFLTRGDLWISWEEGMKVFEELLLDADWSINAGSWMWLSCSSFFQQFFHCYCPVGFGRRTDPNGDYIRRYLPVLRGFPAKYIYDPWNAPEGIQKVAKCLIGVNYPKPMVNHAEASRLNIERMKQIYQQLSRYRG
Assay: SEC; PER1 1013-1291, CRY1 1-496 or CRY2 1-512 and WDR5 22-334: equimolar mixture (60 min, 4 °C) or PER1/WDR5 complex pre-formed overnight and then equimolar CRY added for 60 min; dimeric complexes run for comparison; S200 10/300; 25 mM HEPES pH 7.5, 300 mM NaCl, 5% glycerol, 1 mM DTT; both purified

- binding: binds
Substance: mouse PER1 1013-1291 (from UniProt O35973 1013-1291) (domain or fragment)
